Assay results published in patent EP0212822A1, “A composition containing a plant growth regulator and an alkanol and a method of using the same” (ICI AMERICAS INC., priority 1985, dated 1987).

How the values were obtained:
birch trees = experiment: Movement of tracer dyes after injection into whole trees (dye spot area); format: in vivo; conditions: for mobility in trees: whole trees
[1] = test system: Ash (Fraxinus excelsior) and Birch (Betula pendula); experiment: Distribution in the trunk ten days after injection (GLC of sawdust extracts); format: in vivo; conditions: ten days after treatment, 20 g/l (20 ml per hole) or 4 g/l (100 ml per hole) in methanol
[2] = 0.1% solution in methanol, 75ml injection volume, mean of five birch trees

CC1=CC(=C(c2ccc(N)c(S(=O)(=O)O)c2)c2ccc(N)c(S(=O)(=O)O)c2)C=C(S(=O)(=O)O)C1=N [acid fuschin]
distance from the injection point of the largest dye spot area (birch trees; [2]): 2 metres
movement from the injection point (birch trees; [2]): above 2 metres
mobility in trees (birch trees): highly mobile

CC(C)(C)[C@@H](O)[C@@H](Cc1ccc(Cl)cc1)n1cncn1 (racemic) [Formula (II), (2RS,3RS)-1-(4-chlorophenyl-4,4-dimethyl-2-1,2,4-triazol-1-yl)pentan-3-ol]
distribution within the tree ([1]; listed as (II)): remained close to the point of injection and had not moved substantially to the crowns of the trees
distribution within the tree ([1]; listed as II): distributed close to the injection point

CN(C)c1ccc2nc3ccc(=[N+](C)C)cc-3sc2c1 [methylene blue]
movement from the injection point (birch trees; [2]): ≤ 0.5 metres
mobility in trees (birch trees): relatively immobile
